These are yes or no findings as the source states them, for the method shown. In cells and extracts the contact can be indirect. Some results given as binding are weak or reduced against the parent protein; the word gives no strength.
Target: T1, Tem1 (S. cerevisiae) (UniProt P38987)
T1 sequence: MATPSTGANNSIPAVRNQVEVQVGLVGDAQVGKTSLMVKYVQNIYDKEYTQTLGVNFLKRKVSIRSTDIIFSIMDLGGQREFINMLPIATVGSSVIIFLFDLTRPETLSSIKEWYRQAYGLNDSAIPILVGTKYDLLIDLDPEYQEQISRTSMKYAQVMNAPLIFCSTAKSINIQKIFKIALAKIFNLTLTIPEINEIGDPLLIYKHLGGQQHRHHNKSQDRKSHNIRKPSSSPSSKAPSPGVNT
Assay: co-IP; whole cell extracts of YL1C strains grown in YPD to OD600 1.0; dynabeads protein G with antibody; IP lysis buffer 50 mM HEPES-KOH pH 7.5, 140 mM NaCl, 1 mM EDTA, 1% Triton X-100; for Cdc15/Tem1 in YL1C, YL1C Δamn1 and with overexpressed Amn1^368D or Amn1^368V

binding: binds
B1: Cdc15 (protein, UniProt P27636 1-974)
chain: MNSMADTDRVNLTPIQRASEKSVQYHLKQVIGRGSYGVVYKAINKHTDQVVAIKEVVYENDEELNDIMAEISLLKNLNHNNIVKYHGFIRKSYELYILLEYCANGSLRRLISRSSTGLSENESKTYVTQTLLGLKYLHGEGVIHRDIKAANILLSADNTVKLADFGVSTIVNSSALTLAGTLNWMAPEILGNRGASTLSDIWSLGATVVEMLTKNPPYHNLTDANIYYAVENDTYYPPSSFSEPLKDFLSKCFVKNMYKRPTADQLLKHVWINSTENVKVDKLNKFKEDFTDADYHWDADFQEEKLNISPSKFSLAAAPAAWAENNQELDLMPPTESQLLSQLKSSSKPLTDLHVLFSVCSLENIADTIIECLSRTTVDKRLITAFGSIFVYDTQHNHSRLRLKFIAMGGIPLIIKFEHLAKEFVIDYPQTLIECGIMYPPNFASLKTPKYILELVYRFYDLTSTAFWCRWCFKHLDISLLLNNIHERRAQSILLKLSSYAPWSFEKILPSLIDSKLKKKILISPQITYVVFKSINYMITTNDDKIHKSAIPSSSSLPLSSSPTRNSPVNSVQSPSRSPVHSLMATRPSSPMRHKSISNFPHLTISSKSRLLIELPEGFFTWLTSFFVDMAQIKDLSVLKYFTKLCYLTVHINSTFLNDLLDNDAFFAFIRNIDTIIPFIDDAKTAAFIWKQITAICVEMSLDMDQMSASLFSTAMNFIRKKNNTSISGLEIILNCLHFTLRNVNDDVAPTVGSSESHSVFLIKVNNDAAIELPIDQLVDLFYALNDDDVNLSKLISIFTKICSLPGFENLTINIIFHPNFYEKIVSFFDTYFNSLLIQIDLLKFIKLIFSKSLLKLYDYTGQPDPIKQTEPNRRNKATVFKLRAILVQITEFLNNNWNKDVPKRNSNQVGGDSVLICQLCEDIRSLSKKGSLQKVSSVTAAIGSSPTKDERSNLRSSKDKSDGFSVPITTFQT

Reference: paper PMC6181423
